Data set [1] has as its system 2C antibody (IgG fraction of antiserum raised to 2C-B-BSA). The experiment in a line: Competitive microtitre plate ELISA, 2C antibody (antiserum raised to 2C-B-BSA). The class given is binding. The protocol: The wells of an enhanced binding 96 well polystyrene microtitre plate were coated with IgG fraction of antiserum raised to 2C-B-BSA, diluted in 10 mM Tris, pH8.5 (125 μl/well). The appropriate antibody coating dilution was determined using standard ELISA checkerboard techniques. The plate was incubated overnight at 4° C., washed 4 times over 10 minutes with Tris buffered saline containing Tween 20 (TBST) and tapped dry. Standard solutions of 2CB were prepared in TBST at 0, 1.25, 2.5, 5, 10, 20, 40 & 80 ng/ml, and 50 μl of each was added to the appropriate wells. 75 μl of conjugate (Example 11) diluted in Tris buffer (pH 7.2) containing EDTA, D-mannitol, sucrose, thimerosal and BSA, was added to each of the wells. The appropriate dilution of conjugate was also determined using standard ELISA checkerboard techniques. The plate was incubated at 25° C. for 1 hour. Excess unbound conjugate was removed by washing 6 times over a 10-15 minute period with TBST and tapped dry. 125 μl of tetramethylbenzidine (TMB) substrate solution was added to each well of the plate that was then incubated for 20 minutes in the dark at room temperature. The reaction was terminated by addition of 125 μl 0.2 M H2SO4 to each well. The absorbance was measured at 450 nm using a microtitre plate reader. In order to determine the specificity of the competitive ELISAs, standard solutions of a range of structurally similar compounds were prepared in TBST. Using calibration curves generated from these compounds (0-80 ng/ml) percentage cross-reactivity was determined.

For data set [2], the system named is DO antibody 1 (IgG fraction of antiserum raised to DOB-BSA). The experiment in a line: Competitive microtitre plate ELISA, DO antibody 1 (antiserum raised to DOB-BSA). It counts as binding. Here is the method:
The appropriate antibody coating dilution was determined using standard ELISA checkerboard techniques. The plate was incubated for 2 hours at 37° C., washed 4 times over 10 minutes with Tris buffered saline containing Tween 20 (TBST) and tapped dry. […] The appropriate dilution of conjugate was also determined using standard ELISA checkerboard techniques. The plate was incubated at 25° C. for 1 hour. Excess unbound conjugate was removed by washing 6 times over a 10-15 minute period with TBST and tapped dry. 125 μl of tetramethylbenzidine (TMB) substrate solution was added to each well of the plate that was then incubated for 20 minutes in the dark at room temperature. The reaction was terminated by addition of 125 μl 0.2 M H2SO4 to each well. The absorbance was measured at 450 nm using a microtitre plate reader.
On the technique in general: An ELISA detects its analyte on a solid surface through an enzyme-linked reagent.

`COc1cc(CCN)c(OC)cc1Br` [Hapten 2C-B, 1-(4-bromo-2,5-dimethoxyphenyl)ethan-2-amine]: the “Ave OD (A450)” value in data set [1] (2C-B 1.25 ng/ml) came out at 1.958; in data set [1] (2C-B 2.5 ng/ml), 1.785; in data set [1] (2C-B 5 ng/ml), 1.561; in data set [1] (2C-B 10 ng/ml) it was 1.343; in data set [1] (2C-B 20 ng/ml), 1.207; in data set [1] (2C-B 40 ng/ml), 1.005. Further, the “Ave OD (A450)” value in data set [1] (2C-B 80 ng/ml) is 0.858.
In the case of `COc1cc(CC(C)N)c(OC)cc1Br` (racemic) [DOB, 1-(4-bromo-2,5-dimethoxyphenyl)propan-2-amine], the “Ave OD (A450)” value in data set [2] (DOB 0.625 ng/ml) stood at 1.251; in data set [2] (DOB 1.25 ng/ml), 1.126; in data set [2] (DOB 2.5 ng/ml), 0.898; in data set [2] (DOB 5 ng/ml), 0.672; in data set [2] (DOB 10 ng/ml), 0.534; in data set [2] (DOB 20 ng/ml), 0.340. In addition, the “Ave OD (A450)” value in data set [2] (DOB 40 ng/ml) came out at 0.223.

The values are drawn from patent US10775394B2, “Immunoassay for phenethylamines of the 2C and DO sub-families” (Randox Laboratories Limited, priority 2013, dated 2020).
